Counter-ions that a name gives are not always drawn. The list shows a part of the results. Repeats are few or missing, and single values can be far off.
system: C6; assay: cell mass (Coomassie absorbance) after combination of library compound with HMBA, relative to vehicle control (fraction); higher = more remaining cells (less growth inhibition)

Row | Structure (SMILES) | cell mass
1 | CCc1c2c(nc3ccc(OC(=O)N4CCC(N5CCCCC5)CC4)cc13)-c1cc3c(c(=O)n1C2)COC(=O)[C@]3(O)CC [Irinotecan Hcl Trihydrate] + CC(=O)NCCCCCCNC(C)=O [hexamethylene bisacetamide] | 0.752
2 | O=C(O)COCCN1CCN(C(c2ccccc2)c2ccc(Cl)cc2)CC1 (stereo not given) [Cetirizine di hcl] + CC(=O)NCCCCCCNC(C)=O [hexamethylene bisacetamide] | 0.454
3 | Cc1nc(N)sc1-c1ccnc(Nc2ccc(N3CCOCC3)cc2)n1 + CC(=O)NCCCCCCNC(C)=O [hexamethylene bisacetamide] | 0.238
4 | Cc1ccc([N+](=O)[O-])cc1S(=O)(=O)N(C)/N=C/c1cnc2ccc(Br)cn12 [PIK-75 Hydrochloride] + CC(=O)NCCCCCCNC(C)=O [hexamethylene bisacetamide] | 0.162
5 | Cc1[nH]c(/C=C2\C(=O)Nc3ccccc32)c(C)c1CCC(=O)O + CC(=O)NCCCCCCNC(C)=O [hexamethylene bisacetamide] | 0.657
6 | Cc1[nH]nc2ccc(-c3cncc(OC[C@@H](N)Cc4ccccc4)c3)cc12 + CC(=O)NCCCCCCNC(C)=O [hexamethylene bisacetamide] | 0.519
7 | CC1=NN(c2ccc(C)c(C)c2)C(=O)/C1=N\Nc1cccc(-c2cccc(C(=O)O)c2)c1O [Eltrombopag] + CC(=O)NCCCCCCNC(C)=O [hexamethylene bisacetamide] | 0.568
8 | CC(C)Cc1ccc(C(C)C(=O)O)cc1 (stereo not given) [Ibuprofen] + CC(=O)NCCCCCCNC(C)=O [hexamethylene bisacetamide] | 0.647
9 | COc1cc(Nc2ncc3c(n2)-c2ccc(Cl)cc2C(c2c(F)cccc2OC)=NC3)ccc1C(=O)O + CC(=O)NCCCCCCNC(C)=O [hexamethylene bisacetamide] | 0.332
10 | CN(C)C(=N)NC(=N)N [Metformin hydrochloride] + CC(=O)NCCCCCCNC(C)=O [hexamethylene bisacetamide] | 0.866
11 | Clc1ccc(C2(c3ccc(-c4cn[nH]c4)cc3)CCNCC2)cc1 + CC(=O)NCCCCCCNC(C)=O [hexamethylene bisacetamide] | 0.633
12 | CCc1c2c(nc3ccc(OC(=O)N4CCC(N5CCCCC5)CC4)cc13)-c1cc3c(c(=O)n1C2)COC(=O)[C@]3(O)CC [Irinotecan] + CC(=O)NCCCCCCNC(C)=O [hexamethylene bisacetamide] | 0.197
13 | Cc1ccccc1-n1c(Cn2nc(-c3cccc(O)c3)c3c(N)ncnc32)nc2cccc(C)c2c1=O + CC(=O)NCCCCCCNC(C)=O [hexamethylene bisacetamide] | 0.499
14 | N#Cc1ccc(C(c2ccc(C#N)cc2)n2cncn2)cc1 [Letrozole] + CC(=O)NCCCCCCNC(C)=O [hexamethylene bisacetamide] | 0.455
15 | CC(C)(C)c1cc(C(C)(C)C)c(NC(=O)c2c[nH]c3ccccc3c2=O)cc1O + CC(=O)NCCCCCCNC(C)=O [hexamethylene bisacetamide] | 0.598
16 | NC(=O)Nc1cc(-c2cccc(F)c2)sc1C(=O)N[C@H]1CCCNC1 + CC(=O)NCCCCCCNC(C)=O [hexamethylene bisacetamide] | 0.252
17 | COc1ccc2c3n(c(=NC(=O)c4cccnc4)nc2c1OC)CCN3 + CC(=O)NCCCCCCNC(C)=O [hexamethylene bisacetamide] | 0.367
18 | CCOc1cc2ncc(C#N)c(Nc3ccc(OCc4ccccn4)c(Cl)c3)c2cc1NC(=O)/C=C/CN(C)C [Neratinib] + CC(=O)NCCCCCCNC(C)=O [hexamethylene bisacetamide] | 0.734
19 | Cc1cc(Nc2cc(CN3CCOCC3)c3nc(C)c(Cc4ccc(Cl)cc4F)n3n2)n[nH]1 + CC(=O)NCCCCCCNC(C)=O [hexamethylene bisacetamide] | 0.467
20 | O=S(=O)(c1cccc2cnccc12)N1CCCNCC1 [Fasudil HCl] + CC(=O)NCCCCCCNC(C)=O [hexamethylene bisacetamide] | 0.617

2 records drawn at random from those above, as already listed:
Row | Structure (SMILES) | cell mass
14 | N#Cc1ccc(C(c2ccc(C#N)cc2)n2cncn2)cc1 [Letrozole] + CC(=O)NCCCCCCNC(C)=O [hexamethylene bisacetamide] | 0.455
15 | CC(C)(C)c1cc(C(C)(C)C)c(NC(=O)c2c[nH]c3ccccc3c2=O)cc1O + CC(=O)NCCCCCCNC(C)=O [hexamethylene bisacetamide] | 0.598

Additional records:

Row | Structure (SMILES) | cell mass
21 | COc1cccc(-c2cc(=O)c3ccccc3o2)c1N + CC(=O)NCCCCCCNC(C)=O [hexamethylene bisacetamide] | 0.634
22 | CN(C)CCN1C(=O)c2cccc3cc(N)cc(c23)C1=O [Amonafide] + CC(=O)NCCCCCCNC(C)=O [hexamethylene bisacetamide] | 0.524
23 | COc1cc(OC)c(/C=C/S(=O)(=O)Cc2ccc(OC)c(NCC(=O)O)c2)c(OC)c1 + CC(=O)NCCCCCCNC(C)=O [hexamethylene bisacetamide] | 0.202
24 | O=c1ncn2nc(Sc3ccc(F)cc3F)ccc2c1-c1c(Cl)cccc1Cl + CC(=O)NCCCCCCNC(C)=O [hexamethylene bisacetamide] | 0.377
25 | COc1ccc(-c2ccc3c(N4CCOC[C@@H]4C)nc(N4CCOC[C@@H]4C)nc3n2)cc1CO + CC(=O)NCCCCCCNC(C)=O [hexamethylene bisacetamide] | 0.723
26 | COCC[n+]1c2c(n(Cc3cnccn3)c1C)C(=O)c1ccccc1C2=O + CC(=O)NCCCCCCNC(C)=O [hexamethylene bisacetamide] | 0.702
27 | N#Cc1c(O)c2c(-c3ccc(-c4ccccc4O)cc3)csc2[nH]c1=O + CC(=O)NCCCCCCNC(C)=O [hexamethylene bisacetamide] | 0.631
28 | Cn1cc(/C=C/C(=O)c2cccc(F)c2)cc1/C=C/C(=O)NO + CC(=O)NCCCCCCNC(C)=O [hexamethylene bisacetamide] | 0.757
29 | CC[C@H](Nc1ncnc2[nH]cnc12)c1nc2cccc(F)c2c(=O)n1-c1ccccc1 + CC(=O)NCCCCCCNC(C)=O [hexamethylene bisacetamide] | 0.484
30 | CCCCCOC(=O)Nc1nc(=O)n([C@@H]2O[C@H](C)[C@@H](O)[C@@H]2O)cc1F [Capecitabine(Xeloda)] + CC(=O)NCCCCCCNC(C)=O [hexamethylene bisacetamide] | 0.436
31 | CC(C)(C)c1cnc(CSc2cnc(NC(=O)C3CCNCC3)s2)o1 + CC(=O)NCCCCCCNC(C)=O [hexamethylene bisacetamide] | 0.45
32 | O=C(Nc1c[nH]nc1-c1nc2ccc(CN3CCOCC3)cc2[nH]1)NC1CC1 + CC(=O)NCCCCCCNC(C)=O [hexamethylene bisacetamide] | 0.259
33 | Cc1c(CN2CCN(C(=O)[C@H](C)O)CC2)sc2c(N3CCOCC3)nc(-c3cnc(N)nc3)nc12 + CC(=O)NCCCCCCNC(C)=O [hexamethylene bisacetamide] | 0.558
34 | Oc1c2ccccc2c2c3c(cccc13)N=N2 + CC(=O)NCCCCCCNC(C)=O [hexamethylene bisacetamide] | 0.398
35 | N#CC[C@H](C1CCCC1)n1cc(-c2ncnc3[nH]ccc23)cn1 + CC(=O)NCCCCCCNC(C)=O [hexamethylene bisacetamide] | 0.537
36 | CCN(CC)CCCCNc1ncc2cc(-c3cc(OC)cc(OC)c3)c(NC(=O)NC(C)(C)C)nc2n1 + CC(=O)NCCCCCCNC(C)=O [hexamethylene bisacetamide] | 0.495
37 | O=C1NC(=O)/C(=C/c2ccc3c(c2)OC(F)(F)O3)S1 + CC(=O)NCCCCCCNC(C)=O [hexamethylene bisacetamide] | 0.587
38 | CC1(C)CC(=O)c2c(C(F)(F)F)nn(-c3ccc(C(N)=O)c(N[C@H]4CC[C@H](O)CC4)c3)c2C1 + CC(=O)NCCCCCCNC(C)=O [hexamethylene bisacetamide] | 0.288
39 | Cc1csc(-c2nnc(Nc3ccc(Oc4ncccc4-c4ccnc(N)n4)cc3)c3ccccc23)c1 + CC(=O)NCCCCCCNC(C)=O [hexamethylene bisacetamide] | 0.414
40 | Cc1ccc(-n2nc(C(C)(C)C)cc2NC(=O)Nc2ccc(OCCN3CCOCC3)c3ccccc23)cc1 + CC(=O)NCCCCCCNC(C)=O [hexamethylene bisacetamide] | 0.478

Source: the supplement of paper PMC7889204
